This is one part of the list.
Tests used:
Assay in all cases: log2 fold change, soluble protein after heating vs DMSO (PISA); higher = thermal stabilisation; K562 cells, 10 uM, 30 min; active = over 0.2 and 3.5 SD of the protein, either way, in both replicates (recomputed)
[1] = compound: CN1CCN(CCOc2cc(OC3CCOCC3)c3c(Nc4c(Cl)ccc5c4OCO5)ncnc3c2)CC1 [saracatinib]
Summary of the method: (§1)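 Values are thermal stability changes relative to control samples and are taken from duplicates. They are stated as log2 fold changes. Before quantification by TMTpro 16plex LC-MS/MS with equalised channel sums, K562 cells at 2×10^6 cells/mL were treated with 10 μM compound for 30 min, heated in aliquots for 3 min across 48°C-58°C, pooled, extracted in PBS with 0.5% NP-40 at 4°C, and centrifuged at 21,000xg for 90 min to give the soluble supernatant.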

Amino acid sequences for entries named in this document (tags omitted). A change or cut given only in a name is not applied to a line headed by its entry.
UniProt Q12996: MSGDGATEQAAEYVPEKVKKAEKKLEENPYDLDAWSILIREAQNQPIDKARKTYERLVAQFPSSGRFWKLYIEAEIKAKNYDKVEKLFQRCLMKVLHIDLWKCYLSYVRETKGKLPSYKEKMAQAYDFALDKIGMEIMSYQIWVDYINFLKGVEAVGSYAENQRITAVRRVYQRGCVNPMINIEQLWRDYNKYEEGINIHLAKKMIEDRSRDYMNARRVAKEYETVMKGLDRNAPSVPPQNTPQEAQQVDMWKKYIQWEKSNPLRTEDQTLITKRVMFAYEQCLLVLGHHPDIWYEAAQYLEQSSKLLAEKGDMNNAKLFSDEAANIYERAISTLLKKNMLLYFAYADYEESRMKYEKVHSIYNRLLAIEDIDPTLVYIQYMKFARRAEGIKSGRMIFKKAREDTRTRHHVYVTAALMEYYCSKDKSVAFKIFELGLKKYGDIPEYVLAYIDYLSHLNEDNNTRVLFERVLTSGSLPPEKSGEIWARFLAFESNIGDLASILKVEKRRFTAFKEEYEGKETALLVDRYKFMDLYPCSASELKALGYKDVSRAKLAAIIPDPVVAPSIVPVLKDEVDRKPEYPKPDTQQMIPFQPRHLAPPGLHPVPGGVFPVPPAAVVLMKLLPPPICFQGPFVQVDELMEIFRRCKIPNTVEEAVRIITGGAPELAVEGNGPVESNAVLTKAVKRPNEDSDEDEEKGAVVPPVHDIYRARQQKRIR
UniProt Q2TBE0: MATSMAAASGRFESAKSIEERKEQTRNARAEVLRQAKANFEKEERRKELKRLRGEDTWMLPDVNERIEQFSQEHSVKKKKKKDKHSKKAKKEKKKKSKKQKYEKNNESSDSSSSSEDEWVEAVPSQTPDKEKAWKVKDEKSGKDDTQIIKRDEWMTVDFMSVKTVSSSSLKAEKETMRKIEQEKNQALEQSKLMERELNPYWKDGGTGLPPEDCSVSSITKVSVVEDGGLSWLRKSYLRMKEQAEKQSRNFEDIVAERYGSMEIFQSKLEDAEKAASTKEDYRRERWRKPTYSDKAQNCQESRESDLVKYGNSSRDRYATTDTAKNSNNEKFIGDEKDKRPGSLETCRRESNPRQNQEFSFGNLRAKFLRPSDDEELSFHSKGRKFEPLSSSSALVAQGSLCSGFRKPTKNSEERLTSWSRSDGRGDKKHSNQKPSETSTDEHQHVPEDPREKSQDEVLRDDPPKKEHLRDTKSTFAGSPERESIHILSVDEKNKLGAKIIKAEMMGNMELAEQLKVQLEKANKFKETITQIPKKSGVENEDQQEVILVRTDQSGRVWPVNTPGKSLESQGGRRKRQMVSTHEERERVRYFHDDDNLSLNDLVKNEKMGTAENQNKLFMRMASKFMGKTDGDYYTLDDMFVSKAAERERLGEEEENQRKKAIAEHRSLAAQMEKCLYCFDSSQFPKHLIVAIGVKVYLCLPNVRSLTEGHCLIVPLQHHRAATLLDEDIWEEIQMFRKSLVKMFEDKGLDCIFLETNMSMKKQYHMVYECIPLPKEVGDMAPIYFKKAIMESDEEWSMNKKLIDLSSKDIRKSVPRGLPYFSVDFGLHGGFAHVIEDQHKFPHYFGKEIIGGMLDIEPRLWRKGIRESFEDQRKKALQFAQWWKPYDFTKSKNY
UniProt Q6ZWL3: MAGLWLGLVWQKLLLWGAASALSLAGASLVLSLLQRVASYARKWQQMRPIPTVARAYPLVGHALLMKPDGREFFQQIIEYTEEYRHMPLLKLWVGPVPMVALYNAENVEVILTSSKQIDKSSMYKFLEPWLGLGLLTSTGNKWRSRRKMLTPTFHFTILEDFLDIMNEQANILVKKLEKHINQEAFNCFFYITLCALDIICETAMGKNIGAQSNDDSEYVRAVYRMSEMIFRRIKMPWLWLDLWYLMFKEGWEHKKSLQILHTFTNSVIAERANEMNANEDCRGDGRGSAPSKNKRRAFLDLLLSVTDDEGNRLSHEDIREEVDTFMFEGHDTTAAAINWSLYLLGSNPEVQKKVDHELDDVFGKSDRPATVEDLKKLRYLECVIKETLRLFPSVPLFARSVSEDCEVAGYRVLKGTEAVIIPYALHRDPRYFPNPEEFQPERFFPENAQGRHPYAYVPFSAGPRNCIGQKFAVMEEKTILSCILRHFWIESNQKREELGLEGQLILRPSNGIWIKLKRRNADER
UniProt Q9Y4D1, whole entry, looked up: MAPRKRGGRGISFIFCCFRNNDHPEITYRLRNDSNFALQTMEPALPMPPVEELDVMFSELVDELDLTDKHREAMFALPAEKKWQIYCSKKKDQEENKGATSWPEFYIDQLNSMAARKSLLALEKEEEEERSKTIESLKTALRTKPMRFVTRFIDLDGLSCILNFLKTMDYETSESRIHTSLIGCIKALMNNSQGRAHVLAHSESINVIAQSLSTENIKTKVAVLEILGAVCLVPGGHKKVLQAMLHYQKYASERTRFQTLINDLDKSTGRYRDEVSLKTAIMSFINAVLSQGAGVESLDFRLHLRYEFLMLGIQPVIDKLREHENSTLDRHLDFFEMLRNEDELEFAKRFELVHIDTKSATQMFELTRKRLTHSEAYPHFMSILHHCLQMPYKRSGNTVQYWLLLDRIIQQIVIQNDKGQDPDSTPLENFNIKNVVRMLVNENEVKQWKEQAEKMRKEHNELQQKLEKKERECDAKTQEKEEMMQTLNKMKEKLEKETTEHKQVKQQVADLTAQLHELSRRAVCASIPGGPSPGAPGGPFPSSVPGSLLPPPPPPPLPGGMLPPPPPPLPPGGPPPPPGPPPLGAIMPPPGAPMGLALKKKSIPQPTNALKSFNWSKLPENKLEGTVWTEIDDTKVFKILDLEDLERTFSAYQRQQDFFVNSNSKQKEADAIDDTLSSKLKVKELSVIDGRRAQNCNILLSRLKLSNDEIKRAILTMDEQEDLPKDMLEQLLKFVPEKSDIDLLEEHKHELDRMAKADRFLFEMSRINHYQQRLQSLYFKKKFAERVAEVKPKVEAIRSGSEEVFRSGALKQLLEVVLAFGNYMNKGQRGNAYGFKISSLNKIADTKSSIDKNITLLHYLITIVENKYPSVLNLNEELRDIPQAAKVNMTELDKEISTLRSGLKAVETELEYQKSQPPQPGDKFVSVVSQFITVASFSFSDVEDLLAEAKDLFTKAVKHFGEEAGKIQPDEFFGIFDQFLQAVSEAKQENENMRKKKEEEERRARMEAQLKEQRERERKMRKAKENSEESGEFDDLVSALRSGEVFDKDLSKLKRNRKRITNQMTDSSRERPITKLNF
UniProt Q5QP82: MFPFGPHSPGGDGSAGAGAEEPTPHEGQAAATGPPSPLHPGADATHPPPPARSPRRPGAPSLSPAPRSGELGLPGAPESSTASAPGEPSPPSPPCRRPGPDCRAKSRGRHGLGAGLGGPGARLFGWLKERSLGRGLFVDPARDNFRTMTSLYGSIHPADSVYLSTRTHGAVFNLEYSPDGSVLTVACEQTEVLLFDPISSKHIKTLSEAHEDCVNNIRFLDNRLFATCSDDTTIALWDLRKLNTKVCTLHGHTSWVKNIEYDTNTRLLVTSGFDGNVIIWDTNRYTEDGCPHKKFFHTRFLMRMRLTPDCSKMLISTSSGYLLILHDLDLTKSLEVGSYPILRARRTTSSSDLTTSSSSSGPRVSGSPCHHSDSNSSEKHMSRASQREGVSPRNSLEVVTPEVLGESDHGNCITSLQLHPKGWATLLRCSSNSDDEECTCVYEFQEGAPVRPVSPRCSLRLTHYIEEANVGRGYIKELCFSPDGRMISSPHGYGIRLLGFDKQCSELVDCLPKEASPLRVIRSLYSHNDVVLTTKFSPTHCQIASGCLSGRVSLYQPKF
UniProt P01037: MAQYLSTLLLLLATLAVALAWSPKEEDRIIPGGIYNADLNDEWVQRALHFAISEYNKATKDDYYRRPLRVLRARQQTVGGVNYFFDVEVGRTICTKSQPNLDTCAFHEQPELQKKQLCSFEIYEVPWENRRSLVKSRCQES
UniProt Q8N8Z6: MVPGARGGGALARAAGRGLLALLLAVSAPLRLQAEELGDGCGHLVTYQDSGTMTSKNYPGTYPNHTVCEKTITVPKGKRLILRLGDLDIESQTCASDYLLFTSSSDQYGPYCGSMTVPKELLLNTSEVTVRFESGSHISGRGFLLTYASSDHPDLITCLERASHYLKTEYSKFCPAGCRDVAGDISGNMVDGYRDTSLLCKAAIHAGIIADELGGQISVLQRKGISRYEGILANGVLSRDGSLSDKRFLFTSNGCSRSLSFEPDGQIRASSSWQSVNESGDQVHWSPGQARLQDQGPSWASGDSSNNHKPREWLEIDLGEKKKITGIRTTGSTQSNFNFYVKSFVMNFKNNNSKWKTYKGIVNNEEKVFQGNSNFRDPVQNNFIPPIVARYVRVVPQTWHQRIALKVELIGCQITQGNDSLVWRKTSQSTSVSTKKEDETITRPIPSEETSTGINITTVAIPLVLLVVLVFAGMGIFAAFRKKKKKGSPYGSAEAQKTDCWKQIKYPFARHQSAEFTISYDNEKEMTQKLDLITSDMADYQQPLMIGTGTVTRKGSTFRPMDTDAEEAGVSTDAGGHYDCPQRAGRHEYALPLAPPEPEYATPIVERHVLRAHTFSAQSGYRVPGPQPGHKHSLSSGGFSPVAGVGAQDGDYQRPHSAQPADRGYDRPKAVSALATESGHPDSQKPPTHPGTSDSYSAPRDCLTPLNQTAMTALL
UniProt Q9NXF7, whole entry, looked up: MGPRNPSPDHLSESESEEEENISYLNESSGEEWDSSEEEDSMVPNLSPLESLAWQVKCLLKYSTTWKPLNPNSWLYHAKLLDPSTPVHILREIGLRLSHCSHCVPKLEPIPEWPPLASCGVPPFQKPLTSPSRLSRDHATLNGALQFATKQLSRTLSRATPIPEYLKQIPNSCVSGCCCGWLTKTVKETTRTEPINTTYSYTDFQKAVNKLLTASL
UniProt Q05D32: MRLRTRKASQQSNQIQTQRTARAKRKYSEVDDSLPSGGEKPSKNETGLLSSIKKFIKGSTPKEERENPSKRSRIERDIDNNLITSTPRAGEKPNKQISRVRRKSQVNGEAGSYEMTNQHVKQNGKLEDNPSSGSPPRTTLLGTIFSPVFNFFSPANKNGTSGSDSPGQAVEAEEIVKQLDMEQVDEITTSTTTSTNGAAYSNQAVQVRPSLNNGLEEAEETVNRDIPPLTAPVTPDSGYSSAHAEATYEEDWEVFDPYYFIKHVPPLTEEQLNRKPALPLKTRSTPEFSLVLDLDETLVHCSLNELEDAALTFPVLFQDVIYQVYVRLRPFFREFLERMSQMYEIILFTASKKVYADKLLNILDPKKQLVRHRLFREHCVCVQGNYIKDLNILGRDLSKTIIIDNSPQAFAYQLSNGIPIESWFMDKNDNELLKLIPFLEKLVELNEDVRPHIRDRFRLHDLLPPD
UniProt P00167, whole entry, looked up: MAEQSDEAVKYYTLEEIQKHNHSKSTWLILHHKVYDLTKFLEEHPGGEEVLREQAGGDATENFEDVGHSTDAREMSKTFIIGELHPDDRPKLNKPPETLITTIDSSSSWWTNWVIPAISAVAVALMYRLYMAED
UniProt P10619: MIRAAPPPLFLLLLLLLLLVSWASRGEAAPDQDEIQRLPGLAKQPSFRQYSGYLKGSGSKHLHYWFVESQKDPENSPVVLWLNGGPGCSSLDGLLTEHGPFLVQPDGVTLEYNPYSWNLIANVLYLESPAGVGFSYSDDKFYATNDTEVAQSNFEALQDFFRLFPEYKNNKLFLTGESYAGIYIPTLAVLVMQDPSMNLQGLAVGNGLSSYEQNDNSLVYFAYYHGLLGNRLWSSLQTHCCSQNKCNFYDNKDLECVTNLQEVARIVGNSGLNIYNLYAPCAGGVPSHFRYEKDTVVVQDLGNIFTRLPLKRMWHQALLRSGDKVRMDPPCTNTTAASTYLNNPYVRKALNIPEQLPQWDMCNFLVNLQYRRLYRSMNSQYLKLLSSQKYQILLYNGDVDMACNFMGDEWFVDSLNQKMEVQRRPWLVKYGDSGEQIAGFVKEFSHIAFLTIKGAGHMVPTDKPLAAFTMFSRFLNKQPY
UniProt P07711: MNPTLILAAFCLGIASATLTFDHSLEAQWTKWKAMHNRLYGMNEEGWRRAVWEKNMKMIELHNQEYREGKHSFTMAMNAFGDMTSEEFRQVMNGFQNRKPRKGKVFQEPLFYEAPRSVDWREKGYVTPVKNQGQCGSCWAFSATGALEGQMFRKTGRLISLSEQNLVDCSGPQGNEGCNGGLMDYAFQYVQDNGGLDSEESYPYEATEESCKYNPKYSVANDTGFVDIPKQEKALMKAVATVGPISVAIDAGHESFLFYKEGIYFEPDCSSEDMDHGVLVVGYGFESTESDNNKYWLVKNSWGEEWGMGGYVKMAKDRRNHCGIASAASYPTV
UniProt Q53TN4: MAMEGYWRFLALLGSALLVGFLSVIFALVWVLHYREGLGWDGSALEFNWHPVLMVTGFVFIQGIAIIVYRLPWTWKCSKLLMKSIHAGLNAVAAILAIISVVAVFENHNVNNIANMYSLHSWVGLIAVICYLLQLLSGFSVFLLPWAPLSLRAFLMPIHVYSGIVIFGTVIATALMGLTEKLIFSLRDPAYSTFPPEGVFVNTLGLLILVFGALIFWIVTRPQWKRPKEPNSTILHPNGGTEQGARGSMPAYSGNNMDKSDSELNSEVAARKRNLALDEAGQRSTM

[2] = compound: CN1CCN(c2nc(C3=C(c4c[nH]c5ccccc45)C(=O)NC3=O)c3ccccc3n2)CC1 [sotrastaurin]
Summary of the method: as §1

[3] = compound: CNC(=O)C1=CC=CC=C1NC2=NC(=NC=C2Cl)NC3=C(C=C(C=C3)N4CCOCC4)OC
Summary of the method: as §1

[4] = compound: CNCc1ccc(-c2[nH]c3cc(F)cc4c3c2CCNC4=O)cc1 [rucaparib]
Summary of the method: as §1

[5] = compound: CNc1nc(-c2ccc3c(N)n[nH]c3c2)cc(N2C[C@@H](C(=O)NC3CCCCC3)CC[C@H]2C)n1
Summary of the method: as §1

[6] = compound: COC(=O)N[C@@H](C)CNc1nccc(-c2cn(C(C)C)nc2-c2cc(Cl)cc(NS(C)(=O)=O)c2F)n1 [encorafenib]
Summary of the method: as §1

[7] = compound: COC1=CC=C(C=C1)CN2C=CC3=C2C=C(C=C3)C(=O)NO
Summary of the method: as §1

[8] = compound: CON(C)C(=O)N1N=C(c2cc(F)ccc2F)S[C@@]1(CCCN)c1ccccc1 [filanesib]
Summary of the method: as §1

[9] = compound: COc1cc2nc(-c3cc(F)ccc3O)nc(N[C@@H]3CNC[C@H]3C(C)(C)O)c2cc1OC
Summary of the method: as §1

[10] = compound: CS(=O)(=O)CCNCc1ccc(-c2ccc3ncnc(Nc4ccc(OCc5cccc(F)c5)c(Cl)c4)c3c2)o1 [lapatinib]
Summary of the method: as §1

[11] = compound: CS(=O)(=O)N1CCN(Cc2cc3nc(-c4cccc5[nH]ncc45)nc(N4CCOCC4)c3s2)CC1 [pictilisib]
Summary of the method: as §1

[12] = compound: CN1CCc2c(c3ccccc3n2Cc2ccc(C(=O)NO)cc2)C1 [Tubastatin A]
Summary of the method: as §1

[13] = compound: CNC(=O)c1ccc(Nc2ncc(C(F)(F)F)c(NCc3nccnc3N(C)S(C)(=O)=O)n2)cc1 [defactinib]
Summary of the method: as §1

[14] = compound: COC(=O)[C@H](CCSC)NC(=O)C1=C(C=C(C=C1)NC[C@H](CS)N)C2=CC=CC=C2
Summary of the method: as §1

[15] = compound: CO[C@H]1C[C@@H]2CC[C@@H](C)[C@@](O)(O2)C(=O)C(=O)N2CCCC[C@H]2C(=O)O[C@H]([C@H](C)C[C@@H]2CC[C@H](n3cnnn3)[C@H](OC)C2)CC(=O)[C@H](C)/C=C(\C)[C@@H](O)[C@@H](OC)C(=O)[C@H](C)C[C@H](C)/C=C/C=C/C=C/1C [zotarolimus]
Summary of the method: as §1

[16] = compound: COc1cc(C(=O)O)ccc1NC(=O)[C@@H]1N[C@@H](CC(C)(C)C)[C@](C#N)(c2ccc(Cl)cc2F)[C@H]1c1cccc(Cl)c1F [idasanutlin]
Summary of the method: as §1

[17] = compound: COc1cc(Nc2ncc3c(n2)-c2ccc(Cl)cc2C(c2c(F)cccc2OC)=NC3)ccc1C(=O)O [alisertib]
Summary of the method: as §1

[18] = compound: COc1cc2ncnc(Nc3ccc(F)c(Cl)c3)c2cc1OCCCN1CCOCC1 [gefitinib]
Summary of the method: as §1

[19] = compound: COc1cccc2cc(-c3nc([C@H]4CC[C@H](C(=O)O)CC4)n4ncnc(N)c34)[nH]c12
Summary of the method: as §1

[20] = compound: CN1CC[C@H](c2c(O)cc(O)c3c(=O)cc(-c4ccccc4Cl)oc23)[C@H](O)C1 [alvocidib]
Summary of the method: as §1

Measured: log2 fold change

CTR9 (UniProt Q6PD62)
inactive: [1] -0.208 | [2] -0.048 | [3] -0.162 | [4] 0.242 | [5] 0.004 | [6] 0.298 | [7] -0.391 | [8] 0.027 | [9] -0.249 | [10] -0.182 | [11] -0.007

DBNL isoform 3 (UniProt Q9UJU6)
inactive: [1] 0.04 | [2] -0.014 | [12] 0.009 | [3] 0.01 | [13] -0.106 | [4] -0.1 | [5] -0.05 | [6] 0.061 | [14] -0.004 | [7] 0.096 | [8] 0.006 | [15] -0.018 | [16] 0.02 | [17] 0.025 | [9] -0.002 | [18] 0.021 | [19] -0.016 | [10] 0.016 | [11] 0.027

DCP2 (UniProt Q8IU60)
inactive: [1] -0.053 | [2] -0.267 | [12] 0.013 | [13] 0.098 | [5] -0.153 | [14] 0.081 | [7] -0.085 | [8] 0.121 | [15] -0.037 | [16] 0.167 | [9] 0.075 | [10] -0.042

CSTF3 (UniProt Q12996)
inactive: [1] 0.001 | [2] 0.045 | [12] -0.08 | [3] 0.043 | [13] 0.173 | [4] 0.088 | [5] -0.051 | [6] -0.022 | [14] 0.002 | [7] -0.008 | [8] -0.041 | [15] -0.033 | [16] -0.087 | [17] -0.056 | [9] 0.176 | [18] -0.005 | [19] 0.022 | [10] -0.012 | [11] 0.066

CWF19L2 (UniProt Q2TBE0)
inactive: [1] -0.089 | [2] -0.15 | [12] -0.079 | [3] -0.034 | [4] 0.102 | [5] -0.014 | [6] -0.002 | [7] 0.003 | [8] 0.225 | [15] -0.025 | [16] 0.124 | [9] 0.062 | [10] -0.08 | [11] -0.309

CYP4V2 (UniProt Q6ZWL3)
inactive: [1] 0.056 | [20] -0.022 | [3] 0.081 | [13] -0.045 | [4] 0.118 | [5] 0.058 | [6] -0.036 | [14] -0.018 | [7] -0.076 | [15] -0.037 | [16] 0.061 | [11] -0.034

CXorf40B (UniProt Q96DE9)
inactive: [1] -0.086 | [20] -0.041 | [5] -0.119 | [7] -0.208 | [15] 0.027 | [16] 0.011 | [11] -0.003

DAAM1 (UniProt Q9Y4D1)
inactive: [1] -0.086 | [20] 0.053 | [5] -0.071 | [15] 0.018

DCAF10 (UniProt Q5QP82)
inactive: [1] 0.09 | [2] 0.021 | [12] -0.094 | [3] -0.018 | [13] -0.009 | [4] -0.083 | [5] 0.007 | [6] 0.052 | [14] 0 | [7] -0.047 | [8] 0.016 | [15] -0.01 | [16] 0.002 | [17] 0.09 | [9] 0.076 | [18] -0.051 | [19] -0.067 | [10] -0.081 | [11] 0.032

CTNNB1 (UniProt P35222)
active: [2] 1.08
inactive: [1] 0.032 | [12] 0.148 | [3] -0.065 | [13] 0.074 | [4] -0.145 | [5] -0.025 | [6] 0.079 | [14] -0.015 | [7] -0.082 | [8] 0.174 | [15] 0.029 | [16] -0.056 | [17] -0.084 | [9] 0.072 | [18] -0.001 | [19] 0.054 | [10] 0 | [11] -0.2

CTSS (UniProt P25774)
inactive: [2] 0.051 | [12] -0.084 | [13] 0.074 | [4] 0.258 | [5] 0.134 | [6] -0.074 | [14] -0.012 | [7] 0.019 | [8] 0.051 | [15] -0.081 | [11] -0.043
active: [1] 0.478

CST1 (UniProt P01037)
inactive: [1] -0.079 | [2] -0.091 | [13] -0.027 | [5] 0.19 | [14] -0.091 | [8] -0.006 | [17] 0.273 | [18] 0.44 | [19] 0.118

DCBLD1 (UniProt Q8N8Z6)
inactive: [1] -0.035 | [20] -0.082 | [5] 0.086 | [15] 0.017 | [9] -0.157 | [10] -0.126

CYB561 (UniProt P49447)
inactive: [1] 0.097 | [20] 0.077 | [12] -0.004 | [3] -0.052 | [13] 0.098 | [4] -0.027 | [5] -0.058 | [6] 0.135 | [14] -0.142 | [7] -0.128 | [15] -0.011 | [16] -0.017 | [17] -0.253 | [9] -0.038 | [18] -0.172 | [19] 0.156 | [10] 0.104 | [11] 0.001

DCAF16 (UniProt Q9NXF7)
inactive: [1] -0.052 | [2] -0.036 | [12] -0.006 | [3] 0.084 | [13] -0.054 | [4] 0.033 | [5] -0.05 | [6] 0.004 | [14] -0.041 | [7] 0.065 | [8] 0.077 | [15] 0.035 | [16] 0.037 | [17] -0.07 | [9] 0.021 | [18] 0.022 | [19] 0 | [10] -0.168 | [11] 0.132

CTDSPL2 (UniProt Q05D32)
inactive: [1] -0.046 | [20] -0.12 | [5] -0.374 | [15] 0.106 | [16] 0.082 | [18] 0.05 | [11] 0.192

CUX1 isoform 3 (UniProt P39880)
inactive: [1] 0.002 | [2] -0.003 | [12] 0.021 | [3] 0.012 | [13] -0.065 | [4] 0.037 | [5] -0.062 | [6] -0.018 | [14] 0.01 | [7] 0.068 | [8] 0.001 | [15] -0.002 | [16] 0.012 | [17] -0.047 | [9] -0.024 | [18] 0.009 | [19] 0.008 | [10] 0.013 | [11] 0.054

CYB5A (UniProt P00167)
inactive: [1] -0.011 | [2] 0.012 | [3] 0.042 | [13] -0.007 | [4] -0.039 | [5] -0.026 | [6] -0.053 | [14] 0.027 | [8] 0.007 | [16] -0.019 | [17] -0.028 | [9] -0.157 | [18] 0.02 | [19] 0.085 | [10] -0.149 | [11] 0.059

CTSA (UniProt P10619)
inactive: [1] 0.056 | [2] 0.089 | [12] -0.015 | [3] 0.06 | [13] 0.022 | [4] -0.041 | [5] 0.002 | [6] 0.057 | [14] 0.065 | [7] 0.01 | [8] -0.111 | [15] -0.024 | [16] 0.015 | [17] 0.029 | [9] 0.023 | [18] 0.1 | [19] 0.065 | [10] 0.045 | [11] 0.038

CTSL (UniProt P07711)
active: [8] 0.316
inactive: [1] 0.113 | [2] 0.05 | [12] 0.038 | [3] 0.024 | [13] 0.032 | [4] 0.049 | [5] 0.018 | [6] -0.008 | [14] 0.02 | [7] -0.143 | [15] -0.041 | [16] 0.125 | [17] -0.099 | [9] 0.044 | [18] 0.025 | [19] 0.086 | [10] 0.087 | [11] 0.057

Looked up one by one from above (2):
CTDSPL2 (UniProt Q05D32)
inactive: [1] -0.046 | [20] -0.12 | [5] -0.374 | [15] 0.106 | [16] 0.082 | [18] 0.05 | [11] 0.192

CUX1 isoform 3 (UniProt P39880)
inactive: [1] 0.002 | [2] -0.003 | [12] 0.021 | [3] 0.012 | [13] -0.065 | [4] 0.037 | [5] -0.062 | [6] -0.018 | [14] 0.01 | [7] 0.068 | [8] 0.001 | [15] -0.002 | [16] 0.012 | [17] -0.047 | [9] -0.024 | [18] 0.009 | [19] 0.008 | [10] 0.013 | [11] 0.054

Continued.

CYBRD1 (UniProt Q53TN4)
inactive: [1] -0.16 | [20] 0.213 | [3] -0.246 | [13] -0.005 | [4] 0.099 | [5] -0.036 | [6] 0.206 | [14] 0.007 | [7] 0.088 | [15] -0.034 | [16] 0.106 | [17] -0.189 | [9] -0.059 | [19] -0.044 | [10] -0.067 | [11] 0.037

Source: the supplement of paper PMC10849652
